PubChem BioAssay AID504744 | Drosophila RNAi Screening Center – 2011
Purpose: 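Identify dsRNAs that increase or decrease phospho-dAkt after insulin treatment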 (primary screen). Cells: Drosophila Kc167 cells. Reagent: long dsRNA against Drosophila genes, 250 ng dsRNA per well of a 384-well plate. Time to read-out: 3 days of knock-down, then overnight serum-free starvation before stimulation. Conditions: bovine insulin at 387 nM for 10 minutes after 12 h without serum. Detection: 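Per-well phospho-dAkt level from an in-cell fluorescent antibody stain, divided by a DNA-dye signal; log2 residuals turned into z-scores that take cell number into account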. Rule for the call: 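Hit in the insulin screen when the two-replicate mean z-score is more extreme than plus or minus 2.5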.
The screen tested about 23,000 reagents; shown is a random part of those with a known target gene and a result. Over the whole deposit, 98 (0.43%) were called active. 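Only hit calls are given; the phospho-dAkt signals, z-scores and hit direction were not deposited.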 Names joined by + are all predicted targets of the reagent.

target gene	dsRNA	Outcome
CG32984	DRSC21602	inactive
His-Psi:CR31616 + His-Psi:CR31615	DRSC03760	inactive
CG9389	DRSC11857	inactive
fzr2 (fizzy-related 2)	DRSC04280	inactive
Ranbp16	DRSC20160	inactive
RpL10 (Ribosomal protein L10)	DRSC11947	inactive
CG14196	DRSC19551	inactive
CG14803	DRSC18556	inactive
GV1	DRSC08228	inactive
wam (wampa)	DRSC15171	inactive
CG32246	DRSC08115	inactive
Rtnl1 (Reticulon-like1)	DRSC00851	inactive
Rtnl1 (Reticulon-like1)	DRSC02684	active
Rtnl1 (Reticulon-like1)	DRSC03122	inactive
Rtnl1 (Reticulon-like1)	DRSC21698	inactive
CG12576	DRSC20621	inactive
Es2	DRSC18663	inactive
park (parkin)	DRSC11618	inactive
CG1602	DRSC06601	inactive
rdgB (retinal degeneration B)	DRSC20365	inactive
EMRE (Essential MCU regulator)	DRSC06686	inactive
CG2162	DRSC08557	inactive
Ir11a (Ionotropic receptor 11a)	DRSC19699	inactive
Tgt (tRNA-guanine transglycosylase)	DRSC00672	inactive
CG12824	DRSC06173	inactive
Fis1 (Fission, mitochondrial 1)	DRSC07772	inactive
Meltrin	DRSC16274	inactive
Meltrin	DRSC21693	inactive
CG12105	DRSC08255	inactive
MED7 (Mediator complex subunit 7)	DRSC16059	inactive
Arl1 (ADP ribosylation factor-like 1)	DRSC09667	inactive
RpL15 (Ribosomal protein L15)	DRSC20963	inactive
Ag5r (Antigen 5-related)	DRSC19327	inactive
CG4822	DRSC00669	inactive
X11L	DRSC19958	inactive
X11L	DRSC19959	inactive
norpA (no receptor potential A)	DRSC18806	inactive
tos (tosca)	DRSC03624	inactive
Prosap	DRSC06382	inactive
Prosap	DRSC07081	inactive
CG16904	DRSC15161	inactive
Cpr78E (Cuticular protein 78E)	DRSC11807	inactive
CG13984	DRSC02316	inactive
RpS27A (Ribosomal protein S27A)	DRSC03421	inactive
tup (tailup)	DRSC03627	inactive
CG5808	DRSC14124	inactive
CG13999	DRSC02331	inactive
CG6937 + btn	DRSC16917	inactive
CG3014	DRSC15458	inactive
nAChRalpha1 (nicotinic Acetylcholine Receptor alpha1)	DRSC13664	inactive
nAChRalpha1 (nicotinic Acetylcholine Receptor alpha1)	DRSC13670	inactive
nAChRalpha1 (nicotinic Acetylcholine Receptor alpha1)	DRSC13672	inactive
nAChRalpha1 (nicotinic Acetylcholine Receptor alpha1)	DRSC17008	inactive
kappaB-Ras + CG30503	DRSC06619	inactive
kappaB-Ras + CG30503	DRSC07636	inactive
CG6041	DRSC18396	inactive
CG7849	DRSC04895	inactive
CG34199	DRSC05867	inactive
dve (defective proventriculus)	DRSC04680	inactive
insb (insensible)	DRSC06995	inactive
CG11634	DRSC03700	inactive
RpL36A (Ribosomal protein L36A)	DRSC03055	inactive
CG15152	DRSC02453	inactive
Ufd4 (Ubiquitin fusion-degradation 4-like)	DRSC02871	inactive
SmydA-7 (SET and MYND domain containing, arthropod-specific, member 7)	DRSC07340	inactive
Mzt1 (Mitotic spindle organizing protein 1)	DRSC07979	inactive
Kap3 (Kinesin associated protein 3)	DRSC19426	inactive
CG13002	DRSC19521	inactive
Ets98B (Ets at 98B)	DRSC16666	inactive
CG5746	DRSC15868	inactive
CG5446	DRSC02862	inactive
ArfGAP3 (ADP-ribosylation factor GTPase activating protein 3)	DRSC11794	inactive
CG7304	DRSC10804	inactive
Alp6 (Alkaline phosphatase 6)	DRSC06710	inactive
CG3032	DRSC18266	inactive
Grl58a (Gustatory receptor-like 58a)	DRSC04145	inactive
Ythdc1 (YTH domain containing 1)	DRSC08141	inactive
Sys1 (Sys1 golgi trafficking protein)	DRSC14372	inactive

A portion taken from the entries so far, for reference:
target gene	dsRNA	Outcome
CG12576	DRSC20621	inactive
Es2	DRSC18663	inactive
park (parkin)	DRSC11618	inactive
CG1602	DRSC06601	inactive
rdgB (retinal degeneration B)	DRSC20365	inactive
EMRE (Essential MCU regulator)	DRSC06686	inactive
CG2162	DRSC08557	inactive
Ir11a (Ionotropic receptor 11a)	DRSC19699	inactive
Tgt (tRNA-guanine transglycosylase)	DRSC00672	inactive
CG12824	DRSC06173	inactive

The list goes on:
target gene	dsRNA	Outcome
dpr4 (defective proboscis extension response 4)	DRSC14531	inactive
dpr4 (defective proboscis extension response 4)	DRSC14929	inactive
CG42694	DRSC03955	inactive
Sgt1 (suppressor-of-G2-allele-of-skp1)	DRSC16519	inactive
CG32801	DRSC17964	inactive
CG8516	DRSC16437	inactive
Slmap (Sarcolemma associated protein)	DRSC03799	inactive
RpS23 (Ribosomal protein S23)	DRSC07169	inactive
ave (aveugle)	DRSC05502	inactive
mmy (mummy)	DRSC02002	inactive
Lis-1 (Lissencephaly-1)	DRSC07459	active
Or98P (Odorant receptor 98a pseudogene)	DRSC22948	inactive
Drp1 (Dynamin related protein 1)	DRSC00574	inactive
Tm1 (Tropomyosin 1)	DRSC13082	inactive
Tm1 (Tropomyosin 1)	DRSC13083	inactive
Tm1 (Tropomyosin 1)	DRSC16886	inactive
Pym (Partner of Y14 and Mago)	DRSC22492	inactive
CG2608	DRSC02709	inactive
CG14015	DRSC02346	inactive
CG6324	DRSC19985	inactive
Dic1	DRSC14125	inactive
stops (slow termination of phototransduction)	DRSC15095	inactive
stops (slow termination of phototransduction)	DRSC15096	inactive
stops (slow termination of phototransduction)	DRSC15097	inactive
CG4000	DRSC15535	inactive
CG4000	DRSC21547	inactive
snk (snake)	DRSC17060	inactive
CG9154	DRSC03150	inactive
pico	DRSC19430	inactive
CG14132	DRSC10136	inactive
Cyp308a1 (Cytochrome P450 308a1)	DRSC20238	inactive
Hayan	DRSC19989	inactive
Hayan	DRSC22231	inactive
Ddr (Discoidin domain receptor)	DRSC00922	inactive
Ddr (Discoidin domain receptor)	DRSC00923	inactive
Ddr (Discoidin domain receptor)	DRSC02150	inactive
Ddr (Discoidin domain receptor)	DRSC03229	inactive
Ddr (Discoidin domain receptor)	DRSC03230	inactive
Ddr (Discoidin domain receptor)	DRSC22818	inactive
CG11037	DRSC11631	inactive
CG31089	DRSC15934	inactive
Cdk7 (Cyclin-dependent kinase 7)	DRSC18451	inactive
Rab32	DRSC05146	inactive
Rab32	DRSC07522	inactive
CG11262	DRSC09831	inactive
ASPP	DRSC04305	inactive
CG9988	DRSC16587	inactive
mGluR (metabotropic Glutamate Receptor)	DRSC17215	inactive
HINT1 (histidine triad nucleotide binding protein 1)	DRSC00548	inactive
Rcd-1 (Required for cell differentiation 1)	DRSC19569	inactive
l(3)80Fj (lethal (3) 80Fj)	DRSC20986	inactive
l(3)80Fj (lethal (3) 80Fj)	DRSC20989	inactive
Erasp (Endoplasmic reticulum stress-associated serine protease)	DRSC07111	inactive
GIIIspla2 (Phospholipase A2 group III)	DRSC18094	inactive
CG13947	DRSC00365	inactive
lwr (lesswright)	DRSC00828	inactive
ss (spineless)	DRSC17069	inactive
Gnmt (Glycine N-methyltransferase)	DRSC15987	inactive
CG31998	DRSC17137	inactive
CG31998	DRSC17138	inactive
CG30122	DRSC06776	inactive
CG30122	DRSC06935	inactive
dmGlut (Dietary and metabolic glutamate transporter)	DRSC02835	inactive
CG8135 + BBIP1	DRSC12739	inactive
CG8135 + BBIP1	DRSC16384	inactive
Mec2	DRSC20054	inactive
Nup160 (Nucleoporin 160kD)	DRSC02774	inactive
CG33257	DRSC09917	inactive
mms4 (Methyl methanesulfonate sensitivity 4)	DRSC06249	inactive
CG17819	DRSC15279	inactive
CG14785	DRSC18604	inactive
Dera (Deoxyribose-phosphate aldolase)	DRSC07207	inactive
Dera (Deoxyribose-phosphate aldolase)	DRSC21336	inactive
Ctu1 (Cytosolic thiouridylase subunit 1)	DRSC07069	inactive
CG7215 + Prx5	DRSC16214	inactive
CG7215 + Prx5	DRSC16215	inactive
CG8321	DRSC07148	inactive
Tengl1 (Testis EndoG-Like 1)	DRSC00481	inactive
CG9932	DRSC03275	inactive
